## Melanoma cell counts after drug treatment

Data from the primary screen of doi:10.1371/journal.pone.0140310, rounded.

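Human melanoma cells were exposed to two drugs together for 72 h in 1,536-well plates and read by automated microscopy after fixing and staining. The read-out is cell count (nuclei) in % of the DMSO control; lower values mean stronger growth inhibition or killing. Concentrations were fixed for each drug; these are the lower of two levels, a fifth of the higher. These are primary screening values without error estimates.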 An unselected part of the screen is shown. An entry leaves out what has no value listed here.

All values are for the listed drug together with sunitinib (0.4 µM): CCN(CC)CCNC(=O)c1c(C)[nH]c(/C=C2\C(=O)Nc3ccc(F)cc32)c1C

Cn1cc(C2=C(c3cn(C4CCN(Cc5ccccn5)CC4)c4ccccc34)C(=O)NC2=O)c2ccccc21 at 0.8 µM gave A2058: 113; IPC-298: 102; A101D: 104; COLO 829: 134; LOX IMVI: 96.0; IST-MEL1: 107; COLO 800: 83.4; A375: 108; C32: 103; G-361: 116; COLO 792: 106; MEL-HO: 102; LB2518-MEL: 119.
NC(=O)Nc1cc(-c2cccc(F)c2)sc1C(=O)N[C@H]1CCCNC1 at 0.02 µM gave A2058: 101; IPC-298: 113; A101D: 103; COLO 829: 125; LOX IMVI: 122; IST-MEL1: 109; COLO 800: 81.5; A375: 59.1; C32: 73.1; G-361: 107; COLO 792: 78.0; MEL-HO: 117; LB2518-MEL: 123.
COC(=O)c1sccc1S(=O)(=O)Nc1ccc(Nc2ccccc2)cc1OC at 1 µM gave A2058: 89.5; IPC-298: 101; A101D: 80.3; COLO 829: 138; LOX IMVI: 157; IST-MEL1: 98.8; COLO 800: 59.2; 501mel: 81.4; C32: 94.2; G-361: 106; COLO 792: 95.0; MEL-HO: 105; LB2518-MEL: 105.
CN(NC(=O)CC(=O)NN(C)C(=S)c1ccccc1)C(=S)c1ccccc1 at 0.006 µM gave A2058: 88.3; IPC-298: 100; A101D: 62.9; COLO 829: 104; LOX IMVI: 91.1; IST-MEL1: 94.2; COLO 800: 47.8; A375: 62.8; C32: 65.4; G-361: 83.9; COLO 792: 67.1; MEL-HO: 104; LB2518-MEL: 86.4.
COCC[n+]1c2c(n(Cc3cnccn3)c1C)C(=O)c1ccccc1C2=O at 0.0004 µM gave A2058: 92.8; IPC-298: 102; A101D: 86.2; COLO 829: 94.6; LOX IMVI: 132; IST-MEL1: 94.4; COLO 800: 87.8; A375: 79.4; C32: 80.3; G-361: 90.0; COLO 792: 87.6; MEL-HO: 105; LB2518-MEL: 97.7.
O=S(=O)(c1ccccc1)N(CC(F)(F)F)c1ccc(C(O)(C(F)(F)F)C(F)(F)F)cc1 at 1.4 µM gave A2058: 113; IPC-298: 87.6; A101D: 85.3; COLO 829: 103; LOX IMVI: 125; IST-MEL1: 102; COLO 800: 99.6; 501mel: 66.4; C32: 90.4; G-361: 83.2; COLO 792: 86.9; MEL-HO: 93.7; LB2518-MEL: 126.
CC(C)(C)c1cnc(CSc2cnc(NC(=O)C3CCNCC3)s2)o1 at 0.01 µM gave A2058: 86.6; IPC-298: 107; A101D: 70.8; COLO 829: 103; LOX IMVI: 102; IST-MEL1: 94.5; COLO 800: 45.4; A375: 62.1; C32: 84.7; G-361: 94.2; COLO 792: 82.7; MEL-HO: 97.2; LB2518-MEL: 87.8.
CS(=O)(=O)CCNCc1ccc(-c2ccc3ncnc(Nc4ccc(OCc5cccc(F)c5)c(Cl)c4)c3c2)o1 at 0.8 µM gave A2058: 83.7; IPC-298: 96.4; A101D: 81.3; COLO 829: 109; LOX IMVI: 142; IST-MEL1: 99.8; COLO 800: 89.7; A375: 77.6; C32: 94.0; G-361: 87.9; COLO 792: 69.8; MEL-HO: 113.